Results are given in words; binding and its absence hold for the method and conditions named. For some assays here: Binding seen in cells or lysates may run through a third protein. Some entries that bind do so weakly or less than the wild type. Where a sequence is shown, tags or fusion partners need not be part of it.

Five molecules from article PMC3400628 can be followed below.

One assay concerns the target Flag-NOD2 (human) (UniProt Q9HC29).
Assay [1] has as its target T1, human TRIM18 (yeast two-hybrid fusion) (human) (UniProt O15344).
T1 sequence: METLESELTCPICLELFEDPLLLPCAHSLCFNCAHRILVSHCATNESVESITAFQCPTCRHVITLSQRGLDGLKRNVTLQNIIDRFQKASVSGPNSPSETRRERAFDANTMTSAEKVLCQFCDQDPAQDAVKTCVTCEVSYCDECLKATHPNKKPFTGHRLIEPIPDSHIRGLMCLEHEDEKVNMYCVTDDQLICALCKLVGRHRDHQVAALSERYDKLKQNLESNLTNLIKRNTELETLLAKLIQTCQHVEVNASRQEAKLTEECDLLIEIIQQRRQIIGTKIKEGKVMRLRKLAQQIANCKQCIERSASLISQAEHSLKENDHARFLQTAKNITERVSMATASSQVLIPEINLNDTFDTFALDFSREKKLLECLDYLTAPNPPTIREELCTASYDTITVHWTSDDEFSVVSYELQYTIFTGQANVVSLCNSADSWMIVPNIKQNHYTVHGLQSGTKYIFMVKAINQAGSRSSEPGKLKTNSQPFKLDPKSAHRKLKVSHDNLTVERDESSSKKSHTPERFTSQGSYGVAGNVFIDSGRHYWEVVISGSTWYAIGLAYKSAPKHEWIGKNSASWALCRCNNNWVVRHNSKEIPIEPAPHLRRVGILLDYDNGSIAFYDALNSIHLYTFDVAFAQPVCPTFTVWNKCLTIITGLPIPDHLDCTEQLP
The assay is described as follows: two-hybrid; binary LexA/B42 yeast two-hybrid; baits in pEG202, preys in pJG4-5; EGY42/EGY48 diploids by mating; reporters lacZ (blue colonies) and LEU2 (growth without Leu).

The target of assay [2] is T2, human TRIM8 (yeast two-hybrid fusion) (human) (UniProt Q9BZR9).
T2 sequence: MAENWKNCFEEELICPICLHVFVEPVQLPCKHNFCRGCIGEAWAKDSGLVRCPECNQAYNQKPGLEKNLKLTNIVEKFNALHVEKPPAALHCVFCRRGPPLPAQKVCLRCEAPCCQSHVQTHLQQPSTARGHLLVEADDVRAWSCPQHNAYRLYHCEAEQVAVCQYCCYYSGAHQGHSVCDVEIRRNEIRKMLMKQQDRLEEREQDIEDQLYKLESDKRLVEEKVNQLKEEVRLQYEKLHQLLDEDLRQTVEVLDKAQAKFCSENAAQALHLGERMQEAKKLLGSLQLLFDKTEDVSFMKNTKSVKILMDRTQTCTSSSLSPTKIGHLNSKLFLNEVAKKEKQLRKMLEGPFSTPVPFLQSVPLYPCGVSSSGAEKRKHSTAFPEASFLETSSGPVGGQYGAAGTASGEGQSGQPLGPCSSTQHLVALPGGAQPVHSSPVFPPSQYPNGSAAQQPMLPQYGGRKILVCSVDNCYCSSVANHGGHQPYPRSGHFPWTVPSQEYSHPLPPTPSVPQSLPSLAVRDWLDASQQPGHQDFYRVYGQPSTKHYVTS
The description is as above.

B1: TRIM27 ΔRING+BBox (3xmyc vector) (domain or fragment, UniProt P14373 133-513)
chain: EEAVEGFKEQIQNQLDHLKRVKDLKKRRRAQGEQARAELLSLTQMEREKIVWEFEQLYHSLKEHEYRLLARLEELDLAIYNSINGAITQFSCNISHLSSLIAQLEEKQQQPTRELLQDIGDTLSRAERIRIPEPWITPPDLQEKIHIFAQKCLFLTESLKQFTEKMQSDMEKIQELREAQLYSVDVTLDPDTAYPSLILSDNLRQVRYSYLQQDLPDNPERFNLFPCVLGSPCFIAGRHYWEVEVGDKAKWTIGVCEDSVCRKGGVTSAPQNGFWAVSLWYGKEYWALTSPMTALPLRTPLQRVGIFLDYDAGEVSFYNVTERCHTFTFSHATFCGPVRPYFSLSYSGGKSAAPLIICPMSGIDGFSGHVGNHGHSMETSP
Regarding B1, the binding result in the assay with Flag-NOD2 (human) was “binds”.

B2: TRIM27 PRY-SPRY domain alone (3xmyc vector) (domain or fragment, UniProt P14373 296-513)
chain: EKMQSDMEKIQELREAQLYSVDVTLDPDTAYPSLILSDNLRQVRYSYLQQDLPDNPERFNLFPCVLGSPCFIAGRHYWEVEVGDKAKWTIGVCEDSVCRKGGVTSAPQNGFWAVSLWYGKEYWALTSPMTALPLRTPLQRVGIFLDYDAGEVSFYNVTERCHTFTFSHATFCGPVRPYFSLSYSGGKSAAPLIICPMSGIDGFSGHVGNHGHSMETSP
Regarding B2, the binding result with Flag-NOD2 (human) is “binds”.

B3: human TRIM18 (yeast two-hybrid fusion) (protein, UniProt O15344 1-667)
chain: METLESELTCPICLELFEDPLLLPCAHSLCFNCAHRILVSHCATNESVESITAFQCPTCRHVITLSQRGLDGLKRNVTLQNIIDRFQKASVSGPNSPSETRRERAFDANTMTSAEKVLCQFCDQDPAQDAVKTCVTCEVSYCDECLKATHPNKKPFTGHRLIEPIPDSHIRGLMCLEHEDEKVNMYCVTDDQLICALCKLVGRHRDHQVAALSERYDKLKQNLESNLTNLIKRNTELETLLAKLIQTCQHVEVNASRQEAKLTEECDLLIEIIQQRRQIIGTKIKEGKVMRLRKLAQQIANCKQCIERSASLISQAEHSLKENDHARFLQTAKNITERVSMATASSQVLIPEINLNDTFDTFALDFSREKKLLECLDYLTAPNPPTIREELCTASYDTITVHWTSDDEFSVVSYELQYTIFTGQANVVSLCNSADSWMIVPNIKQNHYTVHGLQSGTKYIFMVKAINQAGSRSSEPGKLKTNSQPFKLDPKSAHRKLKVSHDNLTVERDESSSKKSHTPERFTSQGSYGVAGNVFIDSGRHYWEVVISGSTWYAIGLAYKSAPKHEWIGKNSASWALCRCNNNWVVRHNSKEIPIEPAPHLRRVGILLDYDNGSIAFYDALNSIHLYTFDVAFAQPVCPTFTVWNKCLTIITGLPIPDHLDCTEQLP
On to B3, for which the binding entry in assay [1] was “binds”.

B4: human TRIM8 (yeast two-hybrid fusion) (protein, UniProt Q9BZR9 1-551)
chain: MAENWKNCFEEELICPICLHVFVEPVQLPCKHNFCRGCIGEAWAKDSGLVRCPECNQAYNQKPGLEKNLKLTNIVEKFNALHVEKPPAALHCVFCRRGPPLPAQKVCLRCEAPCCQSHVQTHLQQPSTARGHLLVEADDVRAWSCPQHNAYRLYHCEAEQVAVCQYCCYYSGAHQGHSVCDVEIRRNEIRKMLMKQQDRLEEREQDIEDQLYKLESDKRLVEEKVNQLKEEVRLQYEKLHQLLDEDLRQTVEVLDKAQAKFCSENAAQALHLGERMQEAKKLLGSLQLLFDKTEDVSFMKNTKSVKILMDRTQTCTSSSLSPTKIGHLNSKLFLNEVAKKEKQLRKMLEGPFSTPVPFLQSVPLYPCGVSSSGAEKRKHSTAFPEASFLETSSGPVGGQYGAAGTASGEGQSGQPLGPCSSTQHLVALPGGAQPVHSSPVFPPSQYPNGSAAQQPMLPQYGGRKILVCSVDNCYCSSVANHGGHQPYPRSGHFPWTVPSQEYSHPLPPTPSVPQSLPSLAVRDWLDASQQPGHQDFYRVYGQPSTKHYVTS
Take B4: in assay [2], the binding entry is “binds”.

B5: TRIM27 ΔRING (3xmyc vector) (domain or fragment, UniProt P14373 63-513)
chain: RHMRPNRHLANVTQLVKQLRTERPSGPGGEMGVCEKHREPLKLYCEEDQMPICVVCDRSREHRGHSVLPLEEAVEGFKEQIQNQLDHLKRVKDLKKRRRAQGEQARAELLSLTQMEREKIVWEFEQLYHSLKEHEYRLLARLEELDLAIYNSINGAITQFSCNISHLSSLIAQLEEKQQQPTRELLQDIGDTLSRAERIRIPEPWITPPDLQEKIHIFAQKCLFLTESLKQFTEKMQSDMEKIQELREAQLYSVDVTLDPDTAYPSLILSDNLRQVRYSYLQQDLPDNPERFNLFPCVLGSPCFIAGRHYWEVEVGDKAKWTIGVCEDSVCRKGGVTSAPQNGFWAVSLWYGKEYWALTSPMTALPLRTPLQRVGIFLDYDAGEVSFYNVTERCHTFTFSHATFCGPVRPYFSLSYSGGKSAAPLIICPMSGIDGFSGHVGNHGHSMETSP
As for B5, the binding result with Flag-NOD2 (human) is listed as “binds”.
